Experimental data as given in patent publication EP3281644A1, “STABLE FLUORESCENT NANOVESICLES, METHOD FOR OBTAINING THEM AND USES THEREOF” (Consejo Superior De Investigaciones Científicas, priority 2016, dated 2018).
Structures can show the parent of a compound that is named as a salt. At least one compound was matched to its structure with a doubt left.

Assay: Emission intensity change upon irradiation (photostability)
Assay type: physicochemical
Conditions: after 40 minutes of irradiation

O=C1OC2(c3ccc(O)cc3Oc3cc(O)ccc32)c2ccccc21 [FI, fluorescein sodium salt]
Emission intensity decrease: more than 60%
